Data set [1] concerns sodium channels in neonatal rat cortical neurons. Put plainly: Patch clamp of rat cortical neurons, sodium currents. In kind it is cell-based. The method, then: Rat cortical neurons (purchased from Lonza, Walkersville, MD, USA) were placed on poly-lysine coated glass cover slips in 35 mm dishes, and cultured in primary neuron basal medium with added 2% neural grown factor and 1% glutamine (from Lonza). The medium was half changed every 3 days, and the cells were used at 6–12 days. The neurons had dendrites and axons and the diameters of the somata were about 15–20 µm. Cells were cultured on cover slips and were immersed in 35 mm Petri dishes filled with room temperature extracellular saline. Patch pipettes were pulled from borosilicate glass capillaries with filament (BF150-86-10, Sutter Instrument, Novato CA, USA) on a P-1000 Flaming/Brown micropipette puller (Sutter Instrument). Extracellular solution was the same regardless of the target ion channel and contained: 140 mM NaCl, 5 mM KCl, 2 mM MgCl2, 2 mM CaCl2, 10 mM glucose, and 10 mM HEPES (pH = 7.4). Intracellular patch solution for potassium channel recordings consisted of: 140 mM KF, 10 mM NaCl, 2 mM MgCl2, and 10 mM HEPES (pH = 7.2). Intracellular patch solution for sodium channel recordings consisted of: 140 mM CsCH3SO3 10 mM NaCl, 2 mM MgCl2, 10 mM HEPES (pH = 7.2), where CsCH3SO3 was used to eliminate potassium currents during sodium channel analysis. The patch electrodes had resistances of 5–7 MOhms. […]
In general terms: The patch-clamp technique gives a direct electrical read-out from membranes.

A further data set deals with Aedes aegypti. Kind of data set: Topical toxicity bioassay on adult females. In kind it is in vivo. The note with it: LD50 with DEET alone/LD50 with DEET + PBO. The protocol:
Topical toxicity bioassays on adult female mosquitoes were performed based on the method of Pridgeon et al.. Briefly, insects were chilled on ice for 3 min, during which the appropriate volume (200 nL for mosquitoes, 1 µL for Musca) of chemical (dissolved in 95% ethanol) was applied onto the abdomen using a handheld Hamilton microapplicator. For each inhibitor, five doses were applied to groups of ten insects each and repeated three times. An ethanol-only treatment was included in each experiment as a negative control. Insects were transferred into a holding chamber post-treatment and supplied with free access to sugar water for the duration of the experiment. […] Three LD50 values were obtained and the mean LD50 value was calculated and used for statistical analysis.
For all toxicity assays, control mortality was corrected for using Abbots formula [19]; where corrected percent mortality = (% alive in control–% alive in treated) /% alive in control.

We go through one compound from paper PMC4125160, “Neurotoxicity and Mode of Action of N, N-Diethyl-Meta-Toluamide (DEET)” (PLoS ONE, 2014).

Molecules are shown by their SMILES.

Turning to `CCN(CC)C(=O)c1cccc(C)c1` [DEET, N, N-diethyl-meta-toluamide], in data set [1], the “Hill slope fold greater than lidocaine and toluene” value is 7- to 10 fold; the “fold less active than lidocaine” value is given as “ca. 30 fold”. In the data set with Aedes aegypti, the “SR (synergism ratio)” value is reported as 1.0.
